One molecule from PMC8427430 can be followed below.

Chains of the proteins cited; added tags and fusions are not shown.
UniProt Q96P20: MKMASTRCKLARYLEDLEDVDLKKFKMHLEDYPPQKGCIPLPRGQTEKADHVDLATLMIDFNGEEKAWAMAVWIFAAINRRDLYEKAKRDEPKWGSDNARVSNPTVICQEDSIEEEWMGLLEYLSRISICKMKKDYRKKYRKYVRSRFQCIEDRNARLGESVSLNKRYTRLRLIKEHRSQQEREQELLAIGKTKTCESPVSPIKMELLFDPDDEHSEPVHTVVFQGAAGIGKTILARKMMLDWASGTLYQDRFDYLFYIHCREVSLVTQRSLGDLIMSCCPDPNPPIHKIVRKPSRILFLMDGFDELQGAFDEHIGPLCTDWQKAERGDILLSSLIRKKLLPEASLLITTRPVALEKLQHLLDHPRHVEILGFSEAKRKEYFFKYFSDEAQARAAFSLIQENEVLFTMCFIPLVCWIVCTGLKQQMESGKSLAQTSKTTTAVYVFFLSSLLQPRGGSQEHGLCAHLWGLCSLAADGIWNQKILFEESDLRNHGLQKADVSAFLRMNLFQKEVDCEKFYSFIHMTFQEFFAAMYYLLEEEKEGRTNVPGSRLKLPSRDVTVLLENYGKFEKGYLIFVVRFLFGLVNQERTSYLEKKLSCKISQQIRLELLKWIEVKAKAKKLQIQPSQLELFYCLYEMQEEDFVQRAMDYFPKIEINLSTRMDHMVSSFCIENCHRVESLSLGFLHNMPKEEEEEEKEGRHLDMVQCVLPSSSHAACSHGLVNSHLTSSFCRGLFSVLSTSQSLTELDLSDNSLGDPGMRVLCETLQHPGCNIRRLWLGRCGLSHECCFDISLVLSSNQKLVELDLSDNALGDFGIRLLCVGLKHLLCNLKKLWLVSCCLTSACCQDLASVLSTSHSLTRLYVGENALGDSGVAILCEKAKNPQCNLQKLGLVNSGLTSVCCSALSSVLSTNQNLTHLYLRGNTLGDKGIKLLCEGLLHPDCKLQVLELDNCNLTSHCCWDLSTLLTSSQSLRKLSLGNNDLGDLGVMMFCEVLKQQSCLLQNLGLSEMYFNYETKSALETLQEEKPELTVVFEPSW

These are yes or no findings as the source states them, for the method shown. In cells and extracts the contact can be indirect. A yes stands for co-enrichment or nearness to the bait. Other partners may have been found.

This assay concerns the target NLRP3 (bait of the LC-MS screen) (UniProt Q96P20). Briefly: affinity purification with mass spectrometry; LC-MS of an NLRP3 precipitate to screen proteins that interact with NLRP3; cells and construct not stated (ref. 21).

B1: TRIM65 (found in the NLRP3 precipitate by LC-MS) (protein, UniProt Q6PJ69 1-517)
chain: MAAQLLEEKLTCAICLGLYQDPVTLPCGHNFCGACIRDWWDRCGKACPECREPFPDGAELRRNVALSGVLEVVRAGPARDPGPDPGPGPDPAARCPRHGRPLELFCRTEGRCVCSVCTVRECRLHERALLDAERLKREAQLRASLEVTQQQATQAEGQLLELRKQSSQIQNSACILASWVSGKFSSLLQALEIQHTTALRSIEVAKTQALAQARDEEQRLRVHLEAVARHGCRIRELLEQVDEQTFLQESQLLQPPGPLGPLTPLQWDEDQQLGDLKQLLSRLCGLLLEEGSHPGAPAKPVDLAPVEAPGPLAPVPSTVCPLRRKLWQNYRNLTFDPVSANRHFYLSRQDQQVKHCRQSRGPGGPGSFELWQVQCAQSFQAGHHYWEVRASDHSVTLGVSYPQLPRCRLGPHTDNIGRGPCSWGLCVQEDSLQAWHNGEAQRLPGVSGRLLGMDLDLASGCLTFYSLEPQTQPLYTFHALFNQPLTPVFWLLEGRTLTLCHQPGAVFPLGPQEEVLS
Take B1: the binding entry is reported as “binds”.
